Reference: PubChem BioAssay AID686938 (Drosophila RNAi Screening Center, 2013)

Purpose: 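Looking for CRAC channel components and the factors controlling them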 (primary screen)
Cells: Drosophila S2R+ cells
Reagent: long dsRNA against Drosophila genes, about 0.25 µg dsRNA per well, roughly 10,000 cells
Timing: 5 days of knock-down before the calcium assay
Conditions: thapsigargin (SERCA pump blocker) to empty calcium stores; entry signal taken 4 min after adding it
Measured: 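Per-well fluo-4 fluorescence in two replicates, unnormalised, measured in resting cells and 4 min after store depletion by the SERCA blocker thapsigargin; ratio of the two present in few wells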
Scale: calcium entry signal: higher = stronger calcium signal after store depletion; resting calcium signal: higher = higher resting calcium signal
Hit rule: 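Hit if the duplicate-averaged plate z-score for entry over resting signal is under −3; wells with weak total dye signal (Fmax z < −2) or more than 5 off-targets removed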
Calls: active = strongly reduced calcium entry; inactive = no strong reduction
In all, the deposit lists about 23,000 reagents; this is a random part of those that have a named target and a result. Of all reagents, 75 (0.33%) were called active. 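Raw plate signals without normalisation; calls rest on plate z-scores that were not deposited; ratio present for only 364 wells.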 A number with no mark means an inactive call. No sequences are given here. The record does not give: the dose of the treatment.

| calcium entry signal, replicate 1 (fluorescence units) | calcium entry signal, replicate 2 (fluorescence units) | resting calcium signal, replicate 1 (fluorescence units) | resting calcium signal, replicate 2 (fluorescence units) | target gene | amplicon |
| --- | --- | --- | --- | --- | --- |
| 2.64e7 | 2.75e7 | 1.21e7 | 1.26e7 | Es2 | DRSC18663 |
| 3.56e7 | 3.40e7 | 1.47e7 | 1.57e7 | Pal1 (Peptidyl-alpha-hydroxyglycine-alpha-amidating lyase 1) | DRSC06106 |
| 2.17e7 | 2.76e7 | 1.17e7 | 1.31e7 | CG42588 | DRSC09820 |
| 2.24e7 | 4.74e7 | 1.14e7 | 2.21e7 | CG42588 | DRSC22121 |
| 4.29e7 | – | 2.45e7 | – | ova (ovaries absent) | DRSC02879 |
| 4.72e7 | 4.93e7 | 2.18e7 | 3.35e7 | Ide (Insulin degrading metalloproteinase) | DRSC11867 |
| 4.24e7 | 3.77e7 | 1.92e7 | 1.94e7 | CG6959 | DRSC16151 |
| 4.21e7 | 6.34e7 | 2.12e7 | 2.81e7 | CG42534 | DRSC14722 |
| 3.68e7 | 6.16e7 | 1.93e7 | 3.00e7 | CG42534 | DRSC14759 |
| 3.99e7 | 4.87e7 | 2.03e7 | 2.28e7 | CG42534 | DRSC16072 |
| 3.10e7 | 3.64e7 | 1.52e7 | 1.75e7 | CG42534 | DRSC23131 |
| 4.20e7 | 5.11e7 | 1.93e7 | 2.04e7 | CG9997 | DRSC16591 |
| 3.68e7 | 6.22e7 | 1.69e7 | 2.75e7 | CG14764 | DRSC05072 |
| 3.79e7 | 2.93e7 | 1.66e7 | 1.54e7 | CG14764 | DRSC06498 |
| 3.31e7 | 3.90e7 | 1.54e7 | 1.64e7 | CG14764 | DRSC06844 |
| 4.46e7 | – | 2.09e7 | – | Tmtc3 (Transmembrane O-mannosyltransferase targeting cadherins 3) | DRSC04444 |
| 4.06e7 | 4.77e7 | 1.79e7 | 2.04e7 | Dp1 (Dodeca-satellite-binding protein 1) | DRSC07403 |
| 3.34e7 | 5.35e7 | 1.78e7 | 2.29e7 | E(spl)m6-BFM (Enhancer of split m6, Bearded family member) | DRSC16993 |
| 3.91e7 | 6.60e7 | 1.88e7 | 2.82e7 | dy (dusky) | DRSC20325 |
| 2.66e7 | 2.38e7 | 1.35e7 | 1.24e7 | Ugt302K1 (UDP-glycosyltransferase family 302 member K1) | DRSC16086 |
| 2.92e7 | 3.14e7 | 1.43e7 | 1.49e7 | Dus2 (Dihydrouridine synthase 2) | DRSC19591 |
| 3.36e7 | 3.41e7 | 1.49e7 | 1.60e7 | sqa (spaghetti-squash activator) | DRSC06693 |
| 3.26e7 | 3.11e7 | 1.64e7 | 1.55e7 | sqa (spaghetti-squash activator) | DRSC21635 |
| 3.38e7 | 4.44e7 | 1.68e7 | 1.99e7 | CG34263 | DRSC07866 |
| 2.63e7 | 4.28e7 | 1.41e7 | 1.89e7 | CG5078 | DRSC11762 |
| 4.03e7 | 4.82e7 | 1.93e7 | 3.26e7 | sff (sugar-free frosting) | DRSC10590 |
| 2.37e7 | 4.26e7 | 1.25e7 | 1.97e7 | VhaM9.7-b (Vacuolar H[+] ATPase M9.7 subunit b) | DRSC11841 |
| 3.54e7 | 5.77e7 | 1.70e7 | 2.42e7 | CG32199 | DRSC09990 |
| 2.61e7 | 2.42e7 | 1.15e7 | 1.10e7 | Spn42Dc (Serpin 42Dc) | DRSC05010 |
| 4.27e7 | 4.51e7 | 1.98e7 | 1.98e7 | GstT1 (Glutathione S transferase T1) | DRSC06243 |
| 5.34e7 | 5.37e7 | 2.06e7 | 2.48e7 | mthl4 (methuselah-like 4) | DRSC06998 |
| 3.48e7 | 5.04e7 | 1.74e7 | 5.49e7 | CG14324 | DRSC14803 |
| 5.44e7 | – | 2.45e7 | – | Oatp30B (Organic anion transporting polypeptide 30B) | DRSC02727 |
| 4.27e7 | 4.62e7 | 2.02e7 | 2.17e7 | CG2962 | DRSC18247 |
| 2.75e7 | 3.10e7 | 1.40e7 | 1.48e7 | CG15445 | DRSC20517 |
| 2.57e7 | 3.06e7 | 1.30e7 | 1.34e7 | CG15111 | DRSC21467 |
| 3.10e7 | 3.32e7 | 1.60e7 | 1.56e7 | AlkB | DRSC19115 |
| 4.67e7 | – | 2.21e7 | – | rau | DRSC03125 |
| 2.03e7 | 2.06e7 | 1.37e7 | 1.28e7 | Ald1 (Aldolase 1) | DRSC14109 |
| 3.98e7 | 3.95e7 | 1.99e7 | 1.87e7 | CG40439 | DRSC22707 |

5 consecutive entries already listed:
| calcium entry signal, replicate 1 (fluorescence units) | calcium entry signal, replicate 2 (fluorescence units) | resting calcium signal, replicate 1 (fluorescence units) | resting calcium signal, replicate 2 (fluorescence units) | target gene | amplicon |
| --- | --- | --- | --- | --- | --- |
| 3.10e7 | 3.64e7 | 1.52e7 | 1.75e7 | CG42534 | DRSC23131 |
| 4.20e7 | 5.11e7 | 1.93e7 | 2.04e7 | CG9997 | DRSC16591 |
| 3.68e7 | 6.22e7 | 1.69e7 | 2.75e7 | CG14764 | DRSC05072 |
| 3.79e7 | 2.93e7 | 1.66e7 | 1.54e7 | CG14764 | DRSC06498 |
| 3.31e7 | 3.90e7 | 1.54e7 | 1.64e7 | CG14764 | DRSC06844 |
